These are yes or no findings as the source states them, for the method shown. For some of these results: Binding seen in cells or lysates may run through a third protein. For some of these results: Tags and fused reporters may be left off the sequences shown. Some entries that bind do so weakly or less than the wild type.
How the values were obtained:
[1] = biological target: T1, Flag-FAAP24 (full-length, wild type) (human) (UniProt Q9BTP7); test: co-IP; GFP-FANCM and Flag-FAAP24 over-expressed in cells; which partner was precipitated is not told in the text shown
T1 sequence: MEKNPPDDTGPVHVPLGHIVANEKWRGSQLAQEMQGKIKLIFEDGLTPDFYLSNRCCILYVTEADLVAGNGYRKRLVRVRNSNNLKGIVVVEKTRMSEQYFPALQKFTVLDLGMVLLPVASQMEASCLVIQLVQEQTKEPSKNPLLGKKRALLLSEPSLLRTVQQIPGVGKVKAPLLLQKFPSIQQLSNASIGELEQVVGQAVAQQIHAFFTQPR

[2] = biological target: T2, full-length human FAAP24 (residues 1–215) (human) (UniProt Q9BTP7); test: co-expression and co-purification (Ni-NTA, gel filtration); FANCM fragment and FAAP24-His6 co-expressed in E. coli; complex captured on Ni-NTA by the His6 tag of FAAP24 (20 mM Tris-HCl pH 8.0, 500 mM NaCl, 10% glycerol), then Superdex 200 16/60 in 10 mM HEPES pH 7.5, 100 mM NaCl, 2 mM MgCl2
T2 sequence: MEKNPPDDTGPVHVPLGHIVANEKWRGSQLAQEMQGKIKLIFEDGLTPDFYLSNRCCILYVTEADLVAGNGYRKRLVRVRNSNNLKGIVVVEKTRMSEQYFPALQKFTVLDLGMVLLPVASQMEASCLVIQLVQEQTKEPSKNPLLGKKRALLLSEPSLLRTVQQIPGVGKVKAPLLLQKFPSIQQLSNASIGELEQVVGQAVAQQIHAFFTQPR

[3] = biological target: T3, FAAP24-M2 (R161A/Q164A/K171A), recombinant protein used in EMSA (human) (UniProt Q9BTP7); test: SEC; size-exclusion chromatography of the purified (co-expressed) wild-type and mutant FANCM-FAAP24 complexes used in EMSA; both purified
T3 sequence: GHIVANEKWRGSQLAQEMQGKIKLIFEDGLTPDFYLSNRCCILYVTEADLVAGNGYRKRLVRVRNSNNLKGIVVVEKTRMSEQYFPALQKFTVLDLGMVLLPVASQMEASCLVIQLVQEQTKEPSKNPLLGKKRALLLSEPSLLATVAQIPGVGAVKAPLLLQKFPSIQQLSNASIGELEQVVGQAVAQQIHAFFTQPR

[4] = biological target: T4, N-terminal truncated form of human FAAP24 (residues 17–215) (human) (UniProt Q9BTP7); test: as above
T4 sequence: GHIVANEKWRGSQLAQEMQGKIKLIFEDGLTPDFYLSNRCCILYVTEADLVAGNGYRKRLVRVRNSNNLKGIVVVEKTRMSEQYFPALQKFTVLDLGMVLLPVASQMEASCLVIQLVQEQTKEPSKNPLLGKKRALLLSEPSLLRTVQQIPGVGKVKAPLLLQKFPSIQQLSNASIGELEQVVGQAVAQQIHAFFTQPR

[5] = biological target: T4, N-terminal truncated form of human FAAP24 (residues 17–215) (human); test: crystal structure; co-expressed and co-purified FANCMS-FAAP24S complex; hanging drop, 20°C, 1.0 M (NH4)2SO4, 0.1 M HEPES pH 7.2; MAD, refined to 2.9 Å; both purified
[6] = biological target: T5, FAAP24-M1 (H208A), recombinant protein used in EMSA (human) (UniProt Q9BTP7); test: SEC; size-exclusion chromatography of the purified (co-expressed) wild-type and mutant FANCM-FAAP24 complexes used in EMSA; both purified
T5 sequence: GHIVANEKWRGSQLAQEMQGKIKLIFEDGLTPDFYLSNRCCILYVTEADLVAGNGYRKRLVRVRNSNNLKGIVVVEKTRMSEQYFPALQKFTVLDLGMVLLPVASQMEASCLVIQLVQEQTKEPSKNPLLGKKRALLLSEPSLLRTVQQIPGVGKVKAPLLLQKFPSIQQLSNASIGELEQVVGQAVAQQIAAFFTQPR

“GFP-FANCMΔNΔH (FANCM 1–1813, both nuclease and (HhH)2 domains deleted) (from UniProt Q8IYD8 1-1813) (domain or fragment)” was tested, and the binding [1] was “no binding”.

B1: C-terminal fragment of human FANCM (residues 1727–2048) (domain or fragment, UniProt Q8IYD8 1727-2048)
chain: LAKQSKQTSLNLKDTISEVSDFKPQNHNEVQSTTPPFTTVDSQKDCRKFPVPQKDGSALEDSSTSGASCSKSRPHLAGTHTSLRLPQEGKGTCILVGGHEITSGLEVISSLRAIHGLQVEVCPLNGCDYIVSNRMVVERRSQSEMLNSVNKNKFIEQIQHLQSMFERICVIVEKDREKTGDTSRMFRRTKSYDSLLTTLIGAGIRILFSSCQEETADLLKELSLVEQRKNVGIHVPTVVNSNKSEALQFYLSIPNISYITALNMCHQFSSVKRMANSSLQEISMYAQVTHQKAEEIYRYIHYVFDIQMLPNDLNQDRLKSDI
With B1 the binding [2] was “binds”.

B2: C-terminal fragment of human FANCM (residues 1799–2048) (domain or fragment, UniProt Q8IYD8 1799-2048)
chain: RPHLAGTHTSLRLPQEGKGTCILVGGHEITSGLEVISSLRAIHGLQVEVCPLNGCDYIVSNRMVVERRSQSEMLNSVNKNKFIEQIQHLQSMFERICVIVEKDREKTGDTSRMFRRTKSYDSLLTTLIGAGIRILFSSCQEETADLLKELSLVEQRKNVGIHVPTVVNSNKSEALQFYLSIPNISYITALNMCHQFSSVKRMANSSLQEISMYAQVTHQKAEEIYRYIHYVFDIQMLPNDLNQDRLKSDI
In the case of B2, the binding [2] is reported as “binds”.

B3: shorter form of the C-terminal segment of human FANCM (residues 1813–2031) (domain or fragment, UniProt Q8IYD8 1813-2031)
chain: QEGKGTCILVGGHEITSGLEVISSLRAIHGLQVEVCPLNGCDYIVSNRMVVERRSQSEMLNSVNKNKFIEQIQHLQSMFERICVIVEKDREKTGDTSRMFRRTKSYDSLLTTLIGAGIRILFSSCQEETADLLKELSLVEQRKNVGIHVPTVVNSNKSEALQFYLSIPNISYITALNMCHQFSSVKRMANSSLQEISMYAQVTHQKAEEIYRYIHYVFD
For B3, the binding [3] was “binds”, the binding [4] was “binds” and the binding [5] was “binds”.

B4: FANCM-M1 (K1998A/R1999A), recombinant C-terminal segment used in EMSA (domain or fragment, UniProt Q8IYD8 1813-2031)
chain: QEGKGTCILVGGHEITSGLEVISSLRAIHGLQVEVCPLNGCDYIVSNRMVVERRSQSEMLNSVNKNKFIEQIQHLQSMFERICVIVEKDREKTGDTSRMFRRTKSYDSLLTTLIGAGIRILFSSCQEETADLLKELSLVEQRKNVGIHVPTVVNSNKSEALQFYLSIPNISYITALNMCHQFSSVAAMANSSLQEISMYAQVTHQKAEEIYRYIHYVFD
With B4 the binding [6] was “binds”.

Source: article PMC3905867
